# Test results reported in PMC7819943, “Rice protein-binding microarrays: a tool to detect cis-acting elements near promoter regions in rice”.
# The other results are listed elsewhere or left out.
# Biological target: T1, OsSMF1 (Oryza sativa, UniProt Q6ZLB0 1-436)
# T1 sequence: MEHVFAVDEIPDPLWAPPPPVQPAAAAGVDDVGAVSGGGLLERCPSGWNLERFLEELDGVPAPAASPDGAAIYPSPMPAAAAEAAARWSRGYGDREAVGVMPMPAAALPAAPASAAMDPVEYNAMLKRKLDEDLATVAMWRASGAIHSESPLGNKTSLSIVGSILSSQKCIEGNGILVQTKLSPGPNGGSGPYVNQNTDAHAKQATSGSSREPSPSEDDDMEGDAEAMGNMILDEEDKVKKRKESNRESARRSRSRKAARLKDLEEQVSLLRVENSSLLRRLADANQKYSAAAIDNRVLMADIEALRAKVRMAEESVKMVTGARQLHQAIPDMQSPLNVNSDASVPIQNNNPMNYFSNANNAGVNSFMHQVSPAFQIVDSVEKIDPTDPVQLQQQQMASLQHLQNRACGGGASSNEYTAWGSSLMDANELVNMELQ
# Assay: protein-binding microarray (RPBM); PBS, 2% BSA, 51.3 ng/ul salmon testes DNA, 50 uM zinc acetate, 200 nM TF, 25 C, 1 h; high values mean tight binding
# Conditions: protein: recombinant; tags: N-terminal polyhistidine and DsRed monomer fusion (pET32a); chain copies: 2; label: CyDye5-dUTP incorporated in the synthesized complementary strand; 3' TTTTT single-stranded linker to array surface; dsDNA, one strand shown
# Method in brief: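 In PBS with 2% BSA, salmon testes DNA and 50 µM zinc acetate, 200 nM protein was incubated on a custom Agilent array at 25 °C for 1 h and then washed off. The array had been made double-stranded by primer extension with Cy5-dUTP and blocked with 2% BSA. The proteins were transcription factors fused N-terminally to polyhistidine and DsRed, expressed in E. coli BL21-CodonPlus and purified on Ni–NTA. The binding signal is per-feature fluorescence intensity (arbitrary units) from an Axon 4000B scanner.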
row,Sequence,binding signal
1,TTGTTCAGTTGTGTCACCCCGGTCTCTAAACTTGGATTTGCGGAGTCACCTAGTGCAG,4380 fluorescence intensity (a.u.)
2,TGGTGGTCTTCTTTATCTTTACACATTGCCTTTGGCTAACCGGAGTCACCTAGTGCAG,3160 fluorescence intensity (a.u.)
3,TTAATTTGCTGATGTCTCTGCCATGGCACCATGGCAAGATCGGAGTCACCTAGTGCAG,4380 fluorescence intensity (a.u.)
4,TCTCACAATACACCATTAGATGGGCTATCATCTCTGTTCGCGGAGTCACCTAGTGCAG,3320 fluorescence intensity (a.u.)
5,TAAGTACAGTTTTACACTATTCACGTCCAACGTTTGACCGCGGAGTCACCTAGTGCAG,4980 fluorescence intensity (a.u.)
6,CACTTCCAAATGAGCACCAAGCTGTACCGACAATCTGGCACGGAGTCACCTAGTGCAG,25200 fluorescence intensity (a.u.)
7,CTACACGATTGATACCTACAGCCACGCCGTCGAATCCGTTCGGAGTCACCTAGTGCAG,3730 fluorescence intensity (a.u.)
8,CGGGCCCCTTCTTCGTCGCCGCGCTCCGCCTCCTCCCCGCCGGAGTCACCTAGTGCAG,9750 fluorescence intensity (a.u.)
9,TATTTCTGTCCACGATGGTATTTTGACTAAGATGCACTAGCGGAGTCACCTAGTGCAG,5150 fluorescence intensity (a.u.)
10,AAACTAGCCACGTTGGCGCCACGTCAGCCAAAACCGCCTTCGGAGTCACCTAGTGCAG,33700 fluorescence intensity (a.u.)
11,GGGCCCCACGCTCTGATCCCATAACCAACAATTATGCAGGCGGAGTCACCTAGTGCAG,3850 fluorescence intensity (a.u.)
12,ACTAATTACACGTCAGCTTGCTTAGCCGCGTCGCGCTGCTCGGAGTCACCTAGTGCAG,30400 fluorescence intensity (a.u.)
13,CTTATTGTAGTTCAGTTCTTGGGAGGGGAGGACAAGGCAGCGGAGTCACCTAGTGCAG,3380 fluorescence intensity (a.u.)
14,GCTCATATGACTATACTGTGCTTTTATAAAGTGCAAATGCCGGAGTCACCTAGTGCAG,3300 fluorescence intensity (a.u.)
15,CTCTTCCTCCGCACGCCGCCGCAGACCGGATCCACGTAGCCGGAGTCACCTAGTGCAG,4410 fluorescence intensity (a.u.)
16,TTCTCATAGGCTACGATGGCACTTGCGGCGTCACCGAGGGCGGAGTCACCTAGTGCAG,4170 fluorescence intensity (a.u.)
17,ATTTCCAGTAGCTCTACTGATCATCACTGGGTGACATGGTCGGAGTCACCTAGTGCAG,3200 fluorescence intensity (a.u.)
18,GTGGTTTATAAAATTATGTCATCGTGTTGCTCGCCTCTCGCGGAGTCACCTAGTGCAG,4680 fluorescence intensity (a.u.)
19,GGCGGATGAAGAGAGCGCAACACGTGGTAGCATAATTTTGCGGAGTCACCTAGTGCAG,5380 fluorescence intensity (a.u.)
20,TTCATCCGCTGTTCGGATGATTTCTGACTAGTGCAAGAGGCGGAGTCACCTAGTGCAG,3300 fluorescence intensity (a.u.)
21,CATCCGTCGCTTCGCTTTCGTTCGAACGCGTTGGACCCAGCGGAGTCACCTAGTGCAG,3160 fluorescence intensity (a.u.)

# Shown as tab-separated lines: entries from further up
row	Sequence	binding signal
4	TCTCACAATACACCATTAGATGGGCTATCATCTCTGTTCGCGGAGTCACCTAGTGCAG	3320 fluorescence intensity (a.u.)
5	TAAGTACAGTTTTACACTATTCACGTCCAACGTTTGACCGCGGAGTCACCTAGTGCAG	4980 fluorescence intensity (a.u.)

# Following part:

row,Sequence,binding signal
1,CTTTCTAATGTGTCAGCTACATTTCTGAATAAATAAATTCCGGAGTCACCTAGTGCAG,3650 fluorescence intensity (a.u.)
2,CTAGATTTTGCCAGAGCTGCGTTTGCTGGCGAATGTCCATCGGAGTCACCTAGTGCAG,3270 fluorescence intensity (a.u.)
3,ACCTGTTTGCACCAACACACGTACGCGTGCAGATGAACGACGGAGTCACCTAGTGCAG,4190 fluorescence intensity (a.u.)
4,CTGGGCCCTCGTGCTGCTCTTCTCATGTCACCACCGCCGGCGGAGTCACCTAGTGCAG,3810 fluorescence intensity (a.u.)
5,CTTACTTGAAAACACTATTTGCTCTCCTAATGGAACACAGCGGAGTCACCTAGTGCAG,18000 fluorescence intensity (a.u.)
6,ACGCCGCCGCCGGCATCCCTGACTCACCGACGCGGCTGCACGGAGTCACCTAGTGCAG,8230 fluorescence intensity (a.u.)
7,TCCGAGTCGTACTGTTCACTGGTCCAGTAGCTGATGCTGGCGGAGTCACCTAGTGCAG,3610 fluorescence intensity (a.u.)
8,TCATAACCAAAACCGTGAGTCGACGTCAGCTTGCCCAGCACGGAGTCACCTAGTGCAG,4900 fluorescence intensity (a.u.)
9,TTTTGTAAGACGTGGATTTGTTTATCAAATTATCGTTTGTCGGAGTCACCTAGTGCAG,5820 fluorescence intensity (a.u.)
10,GATGAGGGTGGGGCAAAGGGTCTCTTGTCATATAACCTCGCGGAGTCACCTAGTGCAG,3500 fluorescence intensity (a.u.)
11,ATTTACTGGTGGAATTTTGGTATGCATCACCTCGTAATCCCGGAGTCACCTAGTGCAG,3560 fluorescence intensity (a.u.)
12,AGAGAGAGAGAGGGTTCCAGAATGCAGCAGAGAGGTAGGGCGGAGTCACCTAGTGCAG,3480 fluorescence intensity (a.u.)
13,TATCCTTCCACCTAGACTACATTAGCCTCTGCTAGCCTAACGGAGTCACCTAGTGCAG,3560 fluorescence intensity (a.u.)
14,AAAACAGAGGGACCCACGTGGGCCCCACCTGTCATCCTCGCGGAGTCACCTAGTGCAG,8590 fluorescence intensity (a.u.)
15,GGATCAGGTGGAGGAATAGCGATGGGAGGGGTGGTGGTTGCGGAGTCACCTAGTGCAG,4280 fluorescence intensity (a.u.)
16,TATTCTTCTTGCCACGTAAACACCTAGTCAGCATGAGTGACGGAGTCACCTAGTGCAG,16700 fluorescence intensity (a.u.)
17,ACCAATCAGTATCAGGCCGTCGACTTGTTCAGTGCAGCTGCGGAGTCACCTAGTGCAG,3560 fluorescence intensity (a.u.)
18,TCTTTGTGCCCACCTGGTTTCAGGTCAGGTTAGGTGACAGCGGAGTCACCTAGTGCAG,4560 fluorescence intensity (a.u.)
19,TAAGTTAATTTTGTTCCGTATGATTACAGTGACGGAATAGCGGAGTCACCTAGTGCAG,3150 fluorescence intensity (a.u.)
20,TGACCAAGTAACTTGAGTTGGAAGGTACTACGGCATATTGCGGAGTCACCTAGTGCAG,3240 fluorescence intensity (a.u.)
21,GTAGTGGCCCACCCGTCACTGTGTTCGTAGCAGGCGACTGCGGAGTCACCTAGTGCAG,4150 fluorescence intensity (a.u.)
